# PubChem BioAssay AID2551 (National Center for Advancing Translational Sciences (NCATS), 2010)
# Protein sequences, listed by entry. Tags and fused reporters are not part of them. Lines headed by an entry give the natural chain unless they say otherwise; changes in a name come on top.
# UniProt P51450: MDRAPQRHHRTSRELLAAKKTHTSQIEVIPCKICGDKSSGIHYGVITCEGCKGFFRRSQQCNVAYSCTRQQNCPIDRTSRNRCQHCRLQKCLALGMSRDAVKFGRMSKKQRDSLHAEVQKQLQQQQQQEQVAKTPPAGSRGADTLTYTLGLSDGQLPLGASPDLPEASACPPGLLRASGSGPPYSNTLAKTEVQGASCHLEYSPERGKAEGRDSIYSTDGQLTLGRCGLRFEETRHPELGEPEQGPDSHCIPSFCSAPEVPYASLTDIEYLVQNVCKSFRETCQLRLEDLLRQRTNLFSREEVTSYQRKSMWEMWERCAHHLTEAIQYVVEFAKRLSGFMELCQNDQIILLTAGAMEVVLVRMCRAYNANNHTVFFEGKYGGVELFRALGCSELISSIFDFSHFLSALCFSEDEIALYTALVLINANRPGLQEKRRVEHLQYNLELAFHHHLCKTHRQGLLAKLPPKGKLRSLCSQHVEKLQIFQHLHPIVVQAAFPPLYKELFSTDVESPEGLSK
# Screen size: about 310,000 compounds; about 17,000 (5.5%) were called active. Inconclusive means that the source gave no clear call. Such entries were picked first, then a sample of the others. Calls follow the shape of the dose curve; as a rule, active = well fitted inhibition curve with a large enough effect; inconclusive = small, poorly fitted or top-dose-only effect, or effect the other way; inactive = no such curve, though single readings can be large or run the other way. Where the call is inconclusive, the potency comes from a doubtful curve fit.
# Molecular target: Nuclear receptor ROR-gamma (Mus musculus) (UniProt P51450)
# Test: qHTS for inhibitors of ROR gamma transcriptional activity; also: nearly all actives have a fitted effect of over 60% in size
# Settings: Drosophila S2 Gal4-RORgamma UAS-luciferase reporter, 20 h; activity change, negative = inhibition: at 53.6 µM (top of the series)
# In short: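 ROR gamma transcriptional activity was tracked as Gal4-UAS luciferase output in stably transfected Drosophila Schneider cells, with compound added 1 hr before 700 uM copper sulfate induction and a 20 hr ambient-temperature incubation.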
# % is scaled to controls: 0 for no effect and ±100 for the full control effect; potency is read from the fitted curve at half-maximal effect.
Compound,Potency,"activity change, negative = inhibition"
CC(=O)Oc1ccccc1-c1nc(/C=C/c2ccccc2)no1,"inconclusive: 8.91 µM [inhibitor, single point]",
O=C(Oc1ccccc1)C1O[C@@H]1c1ccccc1 (some centres undefined),,inactive: -23.3%
CCN(CC)c1ccc(NC(=O)c2ccco2)cc1,"inconclusive: 15.8 µM [inhibitor, single point]",
O=S1(=O)C=C(SCc2ccc(Cl)c(Cl)c2)Nc2ccccc21,"inconclusive: 35.5 µM [activator, single point]",
CC(=O)c1c(C(C)=O)c(C)n(Cc2ccc3c(c2)OCO3)c1C,"inconclusive: 22.4 µM [activator, single point]",
CCCC(=O)Nc1ccccc1NC(C)=O,,inactive: -13%
S=c1[nH]nc(CCc2ccc(Cl)cc2)o1,active: 7.94 µM,
C=CCOc1ccc(C(=O)Nc2ccc3c(c2)n(C)c(=O)n3C)cc1,"inconclusive: 1.12 µM [activator, partial curve]",
COc1ccc(-c2ccc(=O)n(Cc3cccc([N+](=O)[O-])c3)n2)cc1,,inactive: 22.2%
CC(=O)O[C@@]12CO[C@@H]1C[C@H](O)[C@@]1(C)C(=O)[C@H](O)C3=C(C)[C@@H](OC(=O)C(O)[C@@H](NC(=O)OC(C)(C)C)c4ccccc4)C[C@@](O)([C@@H](OC(=O)c4ccccc4)[C@H]21)C3(C)C (some centres undefined),"inconclusive: 12.6 µM [activator, partial curve]",
CC(C)(C)C(=O)/C=c1\[nH]c(=O)/c(=C\c2ccc(F)cc2)s1,"inconclusive: 15.8 µM [inhibitor, single point]",
O=C(CN1C(=O)C2CC=C(Cl)CC2C1=O)NCc1ccccc1 (centres undefined),"inconclusive: 0.141 µM [inhibitor, full curve, poor fit]",
CNC(=S)SCCOc1ccccc1C,"inconclusive: 5.62 µM [inhibitor, single point]",
O=C(O)c1cccc(NC(=S)N/N=C/c2ccccn2)c1,active: 4.47 µM,
O=C(O)c1cccc([N+](=O)[O-])c1C(=O)Nc1ccc2ccccc2c1,"inconclusive: 22.4 µM [inhibitor, single point]",
CC(C)(C)c1ccc(C(=O)O/N=C(\N)c2ccccn2)cc1,active: 0.158 µM,
Cc1cc(C)n(-c2nc(C)nc3sc4c(c23)CCC(C)C4)n1 (centres undefined),"inconclusive: 28.2 µM [inhibitor, single point]",
CC(CNC(=O)c1cccs1)c1ccc([N+](=O)[O-])cc1 (centres undefined),"inconclusive: 7.08 µM [activator, full curve, poor fit]",
Cc1cccc(NC(=S)NNC(=S)NC2CCCCC2)c1C,active: 12.6 µM,
CCN(CC)C(=O)CC(c1ccc(N(C)C)cc1)c1c(O)cc(OC)cc1OC (centres undefined),"inconclusive: 3.98 µM [inhibitor, partial curve, poor fit]",
Cc1ccccc1CN1CCc2c(OCC(=O)N3CCCc4ccccc43)cccc2C1=O,"inconclusive: 22.4 µM [activator, single point]",
O=C(Nc1cccc(-c2nnc(-c3ccccc3)o2)c1)c1ccc(Br)o1,"inconclusive: 0.447 µM [activator, partial curve, poor fit]",
CCC(C)NCC(=O)Nc1sc2c(c1C(N)=O)CCC2 (centres undefined),"inconclusive: 25.1 µM [inhibitor, single point]",

Compound,Potency,"activity change, negative = inhibition"
Cc1c(NC(=S)NC(=O)C(C)(C)C)c(=O)n(-c2ccccc2)n1C,,inactive: -5.33%
COc1ccc(C)cc1-n1[nH]nnc1=S,,inactive: -34.6%
O=C(N/N=C/C=C/c1ccc2c(c1)OCO2)C(O)c1ccccc1 (centres undefined),"inconclusive: 28.2 µM [inhibitor, single point]",
COC(=O)c1ccccc1NC(=O)CSc1nc(-c2ccco2)cc(C(F)(F)F)n1,"inconclusive: 17.8 µM [activator, single point]",
CS(=O)(=O)c1ccc2nc(NC(=O)CCS(=O)(=O)c3ccccc3)sc2c1,active: 17.8 µM,
CCN(CC)C(=O)c1sc(NC(=O)c2cc(-c3ccc(C)s3)nc3ccccc23)c(C(=O)OC)c1C,,inactive: 14.9%
CCN(CC)c1ccc2cc(-c3nc4ccccc4[nH]3)c(=O)oc2c1,active: 2.82 µM,
COc1ccccc1CNC(=O)C1CCC(CNS(=O)(=O)c2ccc(C)cc2)CC1 (centres undefined),,inactive: -38.2%
C/C=C(/C)C(=O)O[C@@H]1c2c(ccc3ccc(=O)oc23)OC(C)(C)[C@@H]1OC(=O)/C(C)=C\C,"inconclusive: 35.5 µM [activator, single point]",
O=C(/C=C/c1ccccc1[N+](=O)[O-])N1CCc2ccccc2C1,"inconclusive: 31.6 µM [activator, single point]",
CN(C(=O)CSc1nnc(-c2n[nH]c3ccccc23)o1)c1ccccc1,"inconclusive: 12.6 µM [activator, single point]",
CCOc1ccc(N2C(=O)CC(Cc3cc(C)cc(C)c3)C2=O)cc1 (centres undefined),"inconclusive: 20 µM [activator, single point]",
Cc1nn(C)cc1/C=N/NC(=S)Nc1ccc(Cl)cc1Cl,active: 0.562 µM,
Fc1ccc(-c2cc(C(F)(F)F)nc(N3CCCCC3)n2)cc1,,inactive: 6.65%
Cc1cc(C)n(C(=O)CNC(=O)C2COc3ccccc3O2)n1 (centres undefined),"inconclusive: 31.6 µM [activator, single point]",
NNC(=O)CCc1c[nH]c2ccccc12,"inconclusive: 6.31 µM [activator, single point]",
CC(=O)c1ccc2c(c1)Cc1cc(C(C)=O)ccc1-2,"inconclusive: 12.6 µM [inhibitor, single point]",
COc1ccc(Br)cc1/C=N/N1C(=O)CSC1=S,active: 14.1 µM,
O=C(CCc1ccccc1)Nc1nnc(-c2ccc3c(c2)OCCO3)o1,active: 6.31 µM,
Cc1cc(=O)[nH]c2nnc(-c3ccc(Cl)cc3)n12,"inconclusive: 3.55 µM [inhibitor, full curve, poor fit]",
C[C@H](N)CCCC(C)(C)O,,inactive: -1.51% [at 16.9 µM]
CC(=O)Oc1ccc(/C=N/NC(=O)CCSc2ccccc2)cc1,"inconclusive: 35.5 µM [activator, single point]",
Cc1ccoc1C(=O)NCCNc1ccc(Cl)cc1[N+](=O)[O-],"inconclusive: 35.5 µM [activator, single point]",

Compound,Potency,"activity change, negative = inhibition"
CSc1nncn1/N=C/c1ccc2c(c1)OCO2,"inconclusive: 1.12 µM [activator, full curve, poor fit]",
O=C(NCc1cccs1)c1cccc(Nc2nc3ccc(Br)cc3[nH]2)c1,"inconclusive: 14.1 µM [activator, partial curve]",
O=C(c1cccs1)N1CCN(CCc2ccccc2)CC1,"inconclusive: 0.224 µM [activator, single point]",
CCOC(=O)c1nn(-c2ccc(C)cc2)cc1C(=O)c1ccccc1,"inconclusive: 17.8 µM [inhibitor, single point]",
CC(=O)c1ccc(NC(=O)Nc2ccc([N+](=O)[O-])cc2)cc1,"inconclusive: 4.47 µM [activator, partial curve, poor fit]",
COc1ccc(C2Nc3ccccc3C(=O)N2Cc2ccco2)cc1COc1ccccc1F (centres undefined),,inactive: -12.3%
CC(C)n1cc(/C=C2/NC(=O)N(c3cccc(Cl)c3)C2=O)c2ccccc21,"inconclusive: 0.1 µM [activator, full curve, poor fit]",
O=C(CCCCCNC(=O)c1ccccc1)N/N=C/c1ccco1,,inactive: 13.3%
Cc1ccc(N2C(=O)[C@@H]3[C@H](C2=O)[C@H]2C=CC=NN2[C@@H]3C(=O)Nc2ccc(Cl)cc2)cc1,active: 10 µM,
N/C(=N\OC(=O)COc1ccccc1Cl)c1ccccn1,"inconclusive: 11.2 µM [inhibitor, single point]",
Cc1ccc(SCc2[nH]nc3c2C2(C(=O)Nc4ccc([N+](=O)[O-])cc42)C(C#N)=C(N)O3)cc1 (centres undefined),"inconclusive: 11.2 µM [activator, partial curve]",
O=C(CN1CCCc2ccccc21)NC(=O)NCc1ccco1,"inconclusive: 6.31 µM [activator, single point]",
Cn1nc(C(=O)Nc2ccccc2N2CCCC2)c2ccccc2c1=O,"inconclusive: 0.794 µM [inhibitor, full curve]",
Cc1ccc2nc(-c3ccc(N)cc3)sc2c1,active: 4.47 µM,
O=C(NCCSCc1ccco1)c1ccc(CN2CCOCC2)cc1,"inconclusive: 2 µM [activator, full curve, poor fit]",
C/C(=N\NC(=O)CSCc1ccccc1Br)c1cccc([N+](=O)[O-])c1,"inconclusive: 2.24 µM [activator, partial curve]",
O=[N+]([O-])c1ccc(-c2cn(-c3ccccc3F)c(=S)[nH]2)cc1,"inconclusive: 2.24 µM [inhibitor, full curve]",
O=C(Nc1ccc(Cc2ccncc2)cc1)C1CCC(N2C(=O)C3C4C=CC(C5CC45)C3C2=O)CC1 (centres undefined),"inconclusive: 22.4 µM [activator, partial curve, poor fit]",
CC1(C)CC(=O)c2sc(NC(=O)Cc3cccs3)nc2C1,"inconclusive: 35.5 µM [activator, single point]",
Oc1ccc(CN2CCCCC2)c2cccnc12,active: 7.08 µM,
Cc1ccc(OS(=O)(=O)c2ccccc2)c(/C=N/N=C2\NC(=O)C(C)S2)c1 (centres undefined),active: 8.91 µM,
CCOc1ccc(OCc2ccc(C(=O)OCc3ccccn3)o2)cc1,"inconclusive: 15.8 µM [inhibitor, single point]",
CCOc1ccc(C2C(C(=O)C3CC3)N3C=C(C#N)C=CC3C2(C#N)C#N)cc1 (centres undefined),"inconclusive: 35.5 µM [inhibitor, single point]",

# As a short view, 3 of the compounds above:
Compound,Potency,"activity change, negative = inhibition"
Cc1ccc2nc(-c3ccc(N)cc3)sc2c1,active: 4.47 µM,
O=C(NCCSCc1ccco1)c1ccc(CN2CCOCC2)cc1,"inconclusive: 2 µM [activator, full curve, poor fit]",
C/C(=N\NC(=O)CSCc1ccccc1Br)c1cccc([N+](=O)[O-])c1,"inconclusive: 2.24 µM [activator, partial curve]",
